This passage reports binding signal results from article PMC7819943, “Rice protein-binding microarrays: a tool to detect cis-acting elements near promoter regions in rice”.

Amino acid sequences for entries named in this document (tags omitted).
UniProt Q0JBA9, entry or part of it: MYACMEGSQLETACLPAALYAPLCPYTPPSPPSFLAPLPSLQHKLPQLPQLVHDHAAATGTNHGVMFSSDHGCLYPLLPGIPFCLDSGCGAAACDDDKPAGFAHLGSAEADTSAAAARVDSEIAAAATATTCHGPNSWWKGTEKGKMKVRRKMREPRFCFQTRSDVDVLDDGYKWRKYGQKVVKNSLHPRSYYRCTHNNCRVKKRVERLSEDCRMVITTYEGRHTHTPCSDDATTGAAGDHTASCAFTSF

The list shows a part of the results.

The target of the assay is OsWRKY34 (Oryza sativa, UniProt Q0JBA9 1-250). Kind of assay: protein-binding microarray (RPBM); PBS, 2% BSA, 51.3 ng/ul salmon testes DNA, 50 uM zinc acetate, 200 nM TF, 25 C, 1 h; high values mean tight binding. The following applies: protein: recombinant; tags: N-terminal polyhistidine and DsRed monomer fusion (pET32a); label: CyDye5-dUTP incorporated in the synthesized complementary strand; 3' TTTTT single-stranded linker to array surface; dsDNA, one strand shown. The method in brief: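 Using Ni–NTA, transcription factors fused N-terminally to polyhistidine and DsRed were purified after expression in E. coli BL21-CodonPlus. These were incubated at 200 nM with a blocked, double-stranded custom Agilent array for 1 h at 25 °C in a buffer containing 50 µM zinc acetate, and the array was washed. The binding signal is per-feature fluorescence intensity (arbitrary units) on an Axon 4000B scanner.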
For the sequence “AAAGGTGAGTAGTGGTTTCTGGGTTGCGTCTCCCTTTTTCCGGAGTCACCTAGTGCAG”, the binding signal is 12600 fluorescence intensity (a.u.).

Consider “ATTTGGTTTTGCGGTTCGAGGACGTTTTTATATTCCGATGCGGAGTCACCTAGTGCAG”, for which the binding signal is 8140 fluorescence intensity (a.u.).

In the case of “CTCTCTCTCGTCTATCGCACGCACCTTTTTTAAACTGCTACGGAGTCACCTAGTGCAG”, the binding signal is 8410 fluorescence intensity (a.u.).

For “GCCAACCGCTGCCACCGCCGCTCCGCTCCCGCGCTCTTGGCGGAGTCACCTAGTGCAG”, the binding signal was 8960 fluorescence intensity (a.u.).

With “ATATCTTGGACTCGGTCCTATCTGTCCGTGCCTCGCTTCCCGGAGTCACCTAGTGCAG”, the binding signal was 9340 fluorescence intensity (a.u.).

Consider “GGCTGTATTTATTTATCAAAAGTATTTATCTCTTAAACACCGGAGTCACCTAGTGCAG”, for which the binding signal was 8100 fluorescence intensity (a.u.).

Regarding “GCTGACTTCTATTCCCTGCTCGCCCAATCGAATCCGGCGCCGGAGTCACCTAGTGCAG”, the binding signal is 11700 fluorescence intensity (a.u.).

Turning to “AACTCAGGACCGGTAAATTCGCTATCGGTTTTTTCGGTCTCGGAGTCACCTAGTGCAG”, the binding signal was 8650 fluorescence intensity (a.u.).

Regarding “CGATCCATCCACTCCTCGAGATTTCGGCGGAATGCCTCCGCGGAGTCACCTAGTGCAG”, the binding signal is 8230 fluorescence intensity (a.u.).

“TTACTGTACTGCTGCTACCACTAATGTTCTTTCTCTCCATCGGAGTCACCTAGTGCAG”: the binding signal is 8750 fluorescence intensity (a.u.).

For the sequence “TGCCACCGACACACTCCACTCCTCGCTGCCGCCGCCGCCGCGGAGTCACCTAGTGCAG”, the binding signal was 11100 fluorescence intensity (a.u.).

Turning to “GCTTGCCAACTTGTCCCAAATTTCCTTCGGCGTTTTTTCACGGAGTCACCTAGTGCAG”, the binding signal is 10800 fluorescence intensity (a.u.).

Take “AGTGCGCGCTTCTTCTTCGTTTGTCGCCGATCGTTTTTGTCGGAGTCACCTAGTGCAG”: the binding signal is 11300 fluorescence intensity (a.u.).

On to “TTATTTCCTGTTTGCAATTTCATATTACTTCTCATATTATCGGAGTCACCTAGTGCAG”, for which the binding signal is 8300 fluorescence intensity (a.u.).

With “ATTTATGTTTGCATGTTATCTTGACCTACTTTGTCCTGTCCGGAGTCACCTAGTGCAG”, the binding signal is 10000 fluorescence intensity (a.u.).

Regarding “CCCACACGCCAGAGTCTCAGCTTGCCTCGTTGTCACTCACCGGAGTCACCTAGTGCAG”, the binding signal is 8230 fluorescence intensity (a.u.).

For the sequence “CAACGGCCAACCTCCGACATTGTACTTGTCAGTTGTCACTCGGAGTCACCTAGTGCAG”, the binding signal is 8810 fluorescence intensity (a.u.).

Take “AATTGTTTGTTTTTTAATCTTCTGTGTCACAGTCTTCTGACGGAGTCACCTAGTGCAG”: the binding signal was 9290 fluorescence intensity (a.u.).

On to “GTCAAACATCAACTTTTCCGTCACATCAAATGTTTGGACACGGAGTCACCTAGTGCAG”, for which the binding signal was 8670 fluorescence intensity (a.u.).

Take “GATTAGTGAGAGGGGCAGGGTGGGTGCCGCAGCTCCTGCACGGAGTCACCTAGTGCAG”: the binding signal was 10500 fluorescence intensity (a.u.).

With “AATTTTTACTCTCTGTTTTGGCCTCCTAAAAATTCAAACCCGGAGTCACCTAGTGCAG”, the binding signal was 9510 fluorescence intensity (a.u.).

Take “CTTTTATTTGGTGTATGCAATTTTCTACAGCGCTGCTATACGGAGTCACCTAGTGCAG”: the binding signal was 8840 fluorescence intensity (a.u.).

“TTGTTGCACATTTGTGTTCTTCATAACTCTATTTATGTCACGGAGTCACCTAGTGCAG”: the binding signal is 8110 fluorescence intensity (a.u.).

As to “ATGACGCCGTTGACTTTTTGTCCAACGACCATTCATTTTACGGAGTCACCTAGTGCAG”, the binding signal was 31300 fluorescence intensity (a.u.).

For “GCTGCACAGGGCAAGCTCATTGCCTATATACCTCATTTTACGGAGTCACCTAGTGCAG”, the binding signal is 8030 fluorescence intensity (a.u.).

As to “GCAGCAACAACCGCCGCGCCATTGATGACTAATTGAGATCCGGAGTCACCTAGTGCAG”, the binding signal was 8060 fluorescence intensity (a.u.).

“GCACCGCATTTCTCCCAAGCCTTGCCGGCTTCTCTTCTCTCGGAGTCACCTAGTGCAG”: the binding signal was 9420 fluorescence intensity (a.u.).

For the sequence “TCCAGGGAGCCGCGGTGGCATATGTTGCTGACATGTTTTCCGGAGTCACCTAGTGCAG”, the binding signal was 8190 fluorescence intensity (a.u.).

For the sequence “GCGGAGGAGGTGGTGGTGGTGGAGGAGGAGGAGGCCAAGGCGGAGTCACCTAGTGCAG”, the binding signal was 19300 fluorescence intensity (a.u.).

For the sequence “CCAGATTTTAACATGTTTTACTGCCTTACACGTCCACTGTCGGAGTCACCTAGTGCAG”, the binding signal is 9800 fluorescence intensity (a.u.).

Turning to “GGTTAGTATTGTGTGTGCGTTTGCGTGAACCATGTAATATCGGAGTCACCTAGTGCAG”, the binding signal is 8180 fluorescence intensity (a.u.).

Take “GACTCTGCTCCAGTTGACCAGTACTCGATACTCGTGTGTTCGGAGTCACCTAGTGCAG”: the binding signal was 10200 fluorescence intensity (a.u.).

In the case of “GGGTGTATTTATATTTCTTTTTCTAATTTTCGGGATGTTTCGGAGTCACCTAGTGCAG”, the binding signal is 9970 fluorescence intensity (a.u.).

For “TAACCGCTCATATGCTCTATACTATATGTCTATATCCAACCGGAGTCACCTAGTGCAG”, the binding signal is 8620 fluorescence intensity (a.u.).

On to “TGATTTGTCTCTCGGCTGGGGCCGCGGCTTCTCCTCCCCACGGAGTCACCTAGTGCAG”, for which the binding signal is 8860 fluorescence intensity (a.u.).

For the sequence “CCGTAGCCGTAACACGATCTCCAACTTTCCTCGTGGGCTCCGGAGTCACCTAGTGCAG”, the binding signal is 8030 fluorescence intensity (a.u.).

With “TATAGTAATTTGAGTTTTATTTGTTATTTTTGTTACAATCCGGAGTCACCTAGTGCAG”, the binding signal was 9250 fluorescence intensity (a.u.).

As to “TTGGATCATTTTTTTCGACAGATGCGTACTTCCTTCCTCTCGGAGTCACCTAGTGCAG”, the binding signal was 8790 fluorescence intensity (a.u.).

As for “GTTAGATCCAATTTTACACCCCATCACATCGAACGTTTGACGGAGTCACCTAGTGCAG”, the binding signal is 8120 fluorescence intensity (a.u.).

For the sequence “CAGAGGTATAGATTCCCCACCCCGCCGCCTCCACGCATTCCGGAGTCACCTAGTGCAG”, the binding signal was 9470 fluorescence intensity (a.u.).

With “ATAAATATGTAGCTATAGCTTCTCTGCTTTCCGTCGCTTACGGAGTCACCTAGTGCAG”, the binding signal is 8850 fluorescence intensity (a.u.).

In the case of “CGCGATACATCGATCTCCTCTGCTTCCGATTCCGACATGACGGAGTCACCTAGTGCAG”, the binding signal was 8840 fluorescence intensity (a.u.).

On to “GAACACTCTTTAGGCTGTTCGGCAATTTGGGTAGGGAACTCGGAGTCACCTAGTGCAG”, for which the binding signal is 8192 fluorescence intensity (a.u.).

As to “CATCTTATTATTGGGGATTGGTGGTTTTAGCCAATGGCCGCGGAGTCACCTAGTGCAG”, the binding signal was 10500 fluorescence intensity (a.u.).

For the sequence “ACCTTTTGCAAAACCAGGTCAAGTCCACTCCTCGCATTCTCGGAGTCACCTAGTGCAG”, the binding signal is 9040 fluorescence intensity (a.u.).

For the sequence “TCTGCTGTTGTTTTAGTACTCCAAAAATCTATCCTGCCCACGGAGTCACCTAGTGCAG”, the binding signal was 8640 fluorescence intensity (a.u.).

For the sequence “ATTTCATTTTCCATTTATTCCATGTGTATTTCTGTTTTCACGGAGTCACCTAGTGCAG”, the binding signal was 13000 fluorescence intensity (a.u.).

In the case of “TAACTCGTTTTGTAGTATGTCCTGGGATTTCAAGTTTCTTCGGAGTCACCTAGTGCAG”, the binding signal is 9190 fluorescence intensity (a.u.).

For the sequence “CTTCTGCTCTTCTTCTGGATCTTGTTGATGTGGGTGTTTCCGGAGTCACCTAGTGCAG”, the binding signal is 11200 fluorescence intensity (a.u.).

In the case of “CACATCCATATTTGCAATTAATTTACAACCTAATTTACATCGGAGTCACCTAGTGCAG”, the binding signal was 9070 fluorescence intensity (a.u.).

Consider “TATGATTGTTTTAACTTTTAACTGTTCTGCGTGTTTATTACGGAGTCACCTAGTGCAG”, for which the binding signal was 10700 fluorescence intensity (a.u.).

“TATTCCTTTCTCCTTCCTGTCCCTTGTCGCCGGATTGCAACGGAGTCACCTAGTGCAG”: the binding signal was 10400 fluorescence intensity (a.u.).

Turning to “TTATACGACTTTATACATGTACACATGCTTATATGCTCTCCGGAGTCACCTAGTGCAG”, the binding signal is 9180 fluorescence intensity (a.u.).

Regarding “CACGCGCCATGCCCGCTCCAGCTCCACATATTTACGTTGCCGGAGTCACCTAGTGCAG”, the binding signal was 11800 fluorescence intensity (a.u.).
